{"source": "patent US7781393B2", "about": "“Methods for inhibiting tumor cell growth” (Dana-Farber Cancer Institute, Inc., priority 2004, dated 2010)", "key": {"primary MM cells [1]": {"system": "primary MM cells", "assay": "MTT assay of responsiveness to IL-6", "format": "cell-based, human", "details": "co-treatment 0.5 μM, serum, 72 hours"}, "proteasome": {"system": "proteasome", "assay": "20S proteasome chymotryptic activity assay", "format": "cell-based, human", "details": "0.5 μM, primary MM samples"}, "NFkB": {"system": "NFkB", "assay": "NFkB DNA binding activity ELISA", "format": "cell-based, human", "details": "0.5 μM"}, "HIF-1α": {"system": "HIF-1α", "assay": "HIF-1α DNA binding activity ELISA", "format": "cell-based, human", "details": "0.5 μM, primary multiple myeloma cells", "method": "Flow cytometric analyses for IGF-1R, and IGF-2R were performed as previously described on a EPICS-XL-MCL flow cytometer (Beckman Coulter). Previously described protocols were applied for immunoblotting analyses; TRAP telomerase activity assay; 20S proteasome chymotryptic activity assay; DNA binding activity ELISAs for quantitative assessments of NF-κB and HIF-1a transcriptional activities. VEGF and IGF-1 ELISAs were performed according to manufacturer's instructions (R&D Systems, Minneapolis, Minn.). 20S proteasome chymotryptic activity assay was performed as described [Shringarpure 2003]. The transcriptional activity of DNA binding activity of NF-κB and HIF-1α was measured as previously reported. Libermann T A, et al., . Proc Natl Acad Sci USA; 2002 99: 14374-14379; Mitsiades N. et al., 2002, 99: 4079-4086; Mitsiades N. et al., 2002; Blood 99: 4525-4530 and Mitsiades N., et al 2003 Blood; 101: 2377-2380."}, "primary MM tumor cells": {"system": "primary MM tumor cells", "assay": "MTT survival assay, short-term culture of primary MM tumor cells", "format": "cell-based, human", "details": "0.5 μM", "description": "The dexamethasone (Dex)-sensitive parental line MM-1S and its Dex-resistant subline MM-1R cells were kindly provided by Dr Steven Rosen (Northwestern University, Chicago, Ill.); the chemo-sensitive parental MM cell line RPMI-8226/S, and its chemo-resistant sublines RPMI-8226/Dox40 (doxorubicin-resistant), RPMI-8226/MR20 (mitoxantrone-resistant), RPMI-8226/LR5 (melphalan-resistant) cells were kindly provided by Dr William Dalton (lee Moffitt Cancer Center, Tampa, Fla.); the OCI-My5 cells were provided by Dr Meissner (University of Ontario, Toronto, Canada); the EJM, LP-1, KMM1, K620, OPM-1, and OPM-2 cells were provided by Dr Leif Bergsagel; INA-6 cells were provided by Renate Burger (University of Erlangen-Nuernberg, Germany); XG-1 cells were obtained from Dr Pierfrancesco Tassone (University of Magna Grecia, Italy); NCI-H929 and U266 cells were purchased from American Type Cell Culture (ATCC); MM-1S-myrAkt and MM-1S-Bcl-2 cells were established by stable transfection of MM-1S cells with constructs encoding for constitutively active myristoylated form of Akt and for Bcl-2, respectively. MM-1S-TR13 is a TRAIL/Apo2L-resistant subline established after 13 successive cycles of treatment of TRAIL/Apo2L-sensitive MM-1S parental cells with human recombinant form of TRAIL/Apo2L (N. Mitsiades, unpublished observation). MM-SAR-1 cells were established from primary MM tumor cells from a patient resistant to the proteasome inhibitor PS-341. […] Purity (>95%) was assessed by both morphology and flow cytometry (Becton-Dickinson FACSort, Franklin Lakes, N.J.). […]"}, "MM1S-LucNeo cells": {"system": "MM1S-LucNeo cells", "assay": "Orthotopic mouse model of multiple myeloma, bioluminescence imaging", "format": "in vivo", "details": "50 mg/kg PO BID, after 15 days of treatment, p=0.04", "method": "MM1S-LucNeo cells were created by transducing MM1S cells with a retrovirus encoding the firefly luciferase coding region fused to neomycin phosphotransferase (pMMP-LucNeo). Transduced cells were selected by growth in medium (RPMI, 10% FBS, penicillin/streptomycin) containing G418 at an effective concentration of 1 mg/ml.\nNOD-SCID mice (Jackson Laboratory) were sublethally irradiated with 300 rads from a ^137CS source. Three hours after irradiation, a total of 5×10^6 MM1S-LucNeo cells in mid-logarithmic growth phase were injected via tail vein into each mouse in a volume of 300 μL of PBS. Mice were maintained under sterile conditions.\nBioluminescence imaging was performed with a Xenogen In Vivo Imaging System (IVIS 100). Mice were anesthetized by IP injection of ketamine 150 mg/kg and xylazine 12 mg/kg, and simultaneously D-luciferin 50 mg/kg was administered by IP injection. Imaging was performed 15 minutes after D-luciferin injection with a setting of 2 minutes, and a bin setting of 2. Mice were allowed to recover under isothermic conditions. Mice were imaged weekly beginning 2 weeks after tumor inoculation. Mice with increasing tumor burden were divided into 2 statistically equivalent cohorts, and treatment was started 4 weeks after tumor inoculation. […]"}, "primary MM cells [2]": {"system": "primary MM cells", "assay": "Combination with chemotherapeutic agents in primary MM samples", "format": "cell-based, human", "details": "NVP-AEW541 250 nM"}, "Akt": {"system": "Akt", "assay": "Phospho-Akt sandwich ELISA, ex vivo treated MM patient samples", "format": "cell-based, human", "details": "0.25 μM ex vivo, 15 min, vs vehicle treated controls"}, "[3]": {"system": "MDA-MB231-LucNeo breast cancer cells", "assay": "Breast cancer bone metastasis model (human bone chips in nude mice)", "format": "in vivo", "details": "treatment from 2 weeks after implantation, imaging over 4 weeks"}, "U87-LucNeo glioma cells": {"system": "U87-LucNeo glioma cells", "assay": "Intracranial glioma model, imaging", "format": "in vivo, nude mice", "details": "AEW541 in combination with AMD3100 (a CXCR4 inhibitor)"}}, "note": "At least one compound was matched to its structure with a doubt left.", "data": [{"smiles": "Nc1ncnc2c1c(-c1cccc(OCc3ccccc3)c1)cn2[C@H]1C[C@@H](CN2CCC2)C1", "note": "[NVP-AEW541]", "values": [{"measurement": "responsiveness to IL-6", "setting": "primary MM cells [1]", "value": "abrogated"}, {"measurement": "proteasome function measured as chemotryptic activity", "setting": "proteasome", "value": "inhibit proteasome function"}, {"measurement": "NFkB DNA binding activity", "setting": "NFkB", "value": "significantly impair"}, {"measurement": "HIF-1α DNA binding activity", "setting": "HIF-1α", "value": "inhibit"}, {"measurement": "basal and serum stimulated survival of primary MM cells", "setting": "primary MM tumor cells", "value": "significantly inhibited"}, {"measurement": "serum stimulated survival of primary MM cells", "setting": "primary MM tumor cells", "value": "suppressed serum stimulated survival"}, {"measurement": "survival of primary MM cells from three patients", "setting": "primary MM tumor cells", "value": "significantly impair the survival"}, {"measurement": "tumor burden", "setting": "MM1S-LucNeo cells", "value": "significantly reduced"}, {"measurement": "sensitization of primary MM cells to bortezomib (PS-341)", "setting": "primary MM cells [2]; Bortezomib 5 nM", "value": "sensitized"}, {"measurement": "sensitization of primary MM cells to Dexamethasone", "setting": "primary MM cells [2]; Dexamethasone 0.1 μM", "value": "synergistically sensitize"}, {"measurement": "sensitization of primary MM cells to Doxorubicine", "setting": "primary MM cells [2]; Doxorubicine 50 ng/mL", "value": "synergistically sensitize"}, {"measurement": "sensitization of primary MM cells to Melphalan", "setting": "primary MM cells [2]; Melphalan 1 μM", "value": "synergistically sensitize"}, {"measurement": "level of phospho-Akt", "setting": "Akt", "value": "marked reduction"}, {"measurement": "growth of breast cancer cells in bone metastasis model", "setting": "[3]", "value": "clear anti-tumor effect"}, {"measurement": "growth of glioma tumors, combination with AMD3100", "setting": "U87-LucNeo glioma cells", "value": "additive antitumor efficacy"}]}]}
